From patent US20140030245A1
Results are given in words; binding and its absence hold for the method and conditions named. Binding seen in cells or lysates may run through a third protein. Some entries that bind do so weakly or less than the wild type. Where a sequence is shown, tags or fusion partners need not be part of it.

Target: T1, Myc-Chk1 N-terminus (N-terminal kinase domain of Chk1) (human) (UniProt O14757)
T1 sequence (looked up): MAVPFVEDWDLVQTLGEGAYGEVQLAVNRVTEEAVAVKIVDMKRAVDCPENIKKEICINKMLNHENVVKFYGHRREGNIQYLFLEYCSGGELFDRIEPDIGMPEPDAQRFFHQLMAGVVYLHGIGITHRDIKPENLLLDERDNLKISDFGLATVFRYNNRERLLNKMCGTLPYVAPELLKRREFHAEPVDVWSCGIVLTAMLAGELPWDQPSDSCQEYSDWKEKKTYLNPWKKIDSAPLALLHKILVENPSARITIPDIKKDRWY
Assay: co-immunoprecipitation from HEK293T cells: anti-Myc IP of Myc-Chk1 N-terminus, anti-GFP immunoblot

binding: binds
B1: GFP-tagged Chk1 C-terminal fragment C5 (protein, human, UniProt O14757 331-476, looked up, not shown: large carriers)
chain: SPSYIDKLVQGISFSQPTCPDHMLLNSQLLGTPGSSQNPWQRLVKRMTRFFTKLDADKSYQCLKETCEKLGYQWKKSCMNQVTISTTDRRNNKLIFKVNLLEMDDKILVDFRLSKGDGLEFKRHFLKIKGKLIDIVSSQKIWLPAT
